In PubChem BioAssay (Tox21):
Inconclusive means that the source gave no clear call. Such entries were picked first, then a sample of the others. Potencies of inconclusive entries are doubtful fits and often do not repeat. Some compounds were tested as several samples or in several runs, with calls that do not always agree. Active and inactive are the calls of the source. Unless noted, calls follow the shape of the full dose curve.

Sequences of proteins named here, by UniProt entry; tags and fusion partners are left off.
UniProt P14416, whole entry, looked up: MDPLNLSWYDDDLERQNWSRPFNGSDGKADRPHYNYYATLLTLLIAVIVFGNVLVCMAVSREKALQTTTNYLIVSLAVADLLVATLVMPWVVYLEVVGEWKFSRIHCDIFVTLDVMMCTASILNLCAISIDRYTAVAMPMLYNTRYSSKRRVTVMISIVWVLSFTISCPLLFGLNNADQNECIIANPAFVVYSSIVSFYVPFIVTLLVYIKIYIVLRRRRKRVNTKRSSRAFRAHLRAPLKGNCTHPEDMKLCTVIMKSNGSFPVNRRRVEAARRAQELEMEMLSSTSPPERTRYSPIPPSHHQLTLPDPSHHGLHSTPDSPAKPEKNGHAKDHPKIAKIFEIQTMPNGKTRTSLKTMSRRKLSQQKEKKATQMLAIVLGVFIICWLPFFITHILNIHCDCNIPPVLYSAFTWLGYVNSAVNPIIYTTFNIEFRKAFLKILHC

Target: D(2) dopamine receptor (Homo sapiens) (UniProt P14416)
Test: Dopamine D2 receptor (DRD2) small molecule agonists, cell-based qHTS assay (AID 1963594); also: nearly all actives have a fitted effect of over 35% in size
Details: HEK293-DRD2 cAMP HTRF, agonist mode, 30 min; activation: at 92.4 µM (top of the series) unless noted
Method in brief: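 cAMP accumulation in DRD2-HEK293 cells measured by HTRF after 1 h detection; compounds added 10 min before NKH477 (200nM […]) forskolin-analogue stimulation, 30 min at room temperature, with Ro20-1724 present at 0.1 mM final.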
% is scaled to controls: 0 for no effect and ±100 for the full control effect; potency is read from the fitted curve at half-maximal effect.

SMILES | Potency | activation
CC(C)(C)NCC(O)COc1cccc2c1CCC(=O)N2 (centres undefined) | inconclusive: 2.66 µM [rising, full curve, poor fit] | –
CC(C)C(=O)OC/C=C/c1ccccc1 | inconclusive: 6.11 µM [falling, single point] | –
CCOC(=O)NNc1ccc(N(CC)CC(C)O)nn1 (centres undefined) | – | inactive: 13.9% [at 42.5 µM]
CCCCCCCCCCCCOC(=O)c1ccc(O)cc1 | – | inconclusive: 85%
COc1ccc(CCN(C)CCCC(C#N)(c2cc(OC)c(OC)c(OC)c2)C(C)C)cc1OC (centres undefined) | – | inconclusive: -0.891% [at 42.5 µM]
CCCCCCCCOCCC#N | – | inactive: 0.346%

Target: D(2) dopamine receptor (Homo sapiens) (UniProt P14416)
Test: Dopamine D2 receptor (DRD2) small molecule antagonists, cell-based qHTS assay (AID 1963595; active = well fitted inhibition curve with a large enough effect in the signal ratio in the repeat runs, with a control signal flat; inconclusive = weak or mixed curves, or effect the other way; the % refers to the signal ratio)
Details: HEK293-DRD2 cAMP HTRF antagonist mode; activity change, negative = inhibition: at 92.4 µM (top of the series) unless noted
Method in brief: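 Antagonism was scored as restored cAMP in HEK293-DRD2 cells. These cells were stimulated with 200 nM NKH477 and 12 nM quinpirole for 30 min at room temperature, in the presence of 0.1 mM Ro20-1724.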

SMILES | activity change, negative = inhibition | Potency
CCCN(CCC)C(=O)C(CCC(=O)OCCCN1CCN(CCOC(=O)Cc2c(C)n(C(=O)c3ccc(Cl)cc3)c3ccc(OC)cc23)CC1)NC(=O)c1ccccc1 (centres undefined) | inconclusive: -0.602% [at 42.5 µM] | –
CCN(CC)CCOC(=O)C(c1ccccc1)c1ccccc1 | – | inconclusive: 33.5 µM [inhibitor, single point]
O=C1OC(=O)c2ccc3c4c(ccc1c24)C(=O)OC3=O | inconclusive: 9.08% | –
CCC(Cc1c(I)cc(I)c(N)c1I)C(=O)O (centres undefined) | – | active: 10.6 µM
CCCCC(CC)COC(=O)/C=C\C(=O)OCC(CC)CCCC (centres undefined) | – | inactive
C[Si]1(C)O[Si](C)(C)O[Si](C)(C)O[Si](C)(C)O1 | inconclusive: -4.89% | –
C=CN1CCCC1=O | inconclusive: -4.2% | –
CSc1ccc(Oc2ccc(S(N)(=O)=O)cc2CN(C)C)cc1C | inconclusive: -25.6% | –

Some of the entries so far, in markdown:

| SMILES | activity change, negative = inhibition | Potency |
| --- | --- | --- |
| CCCN(CCC)C(=O)C(CCC(=O)OCCCN1CCN(CCOC(=O)Cc2c(C)n(C(=O)c3ccc(Cl)cc3)c3ccc(OC)cc23)CC1)NC(=O)c1ccccc1 (centres undefined) | inconclusive: -0.602% [at 42.5 µM] | – |
| CCN(CC)CCOC(=O)C(c1ccccc1)c1ccccc1 | – | inconclusive: 33.5 µM [inhibitor, single point] |
| O=C1OC(=O)c2ccc3c4c(ccc1c24)C(=O)OC3=O | inconclusive: 9.08% | – |
